No constants are given. Whether binding was seen depends on the method and setting. In cells and extracts the contact can be indirect. Binding calls can cover weak binding; strength is not graded here. Tags and fused reporters may be left off the sequences shown.
Target: T1, GFP-RBP47b (Arabidopsis thaliana) (UniProt Q0WW84)
T1 sequence: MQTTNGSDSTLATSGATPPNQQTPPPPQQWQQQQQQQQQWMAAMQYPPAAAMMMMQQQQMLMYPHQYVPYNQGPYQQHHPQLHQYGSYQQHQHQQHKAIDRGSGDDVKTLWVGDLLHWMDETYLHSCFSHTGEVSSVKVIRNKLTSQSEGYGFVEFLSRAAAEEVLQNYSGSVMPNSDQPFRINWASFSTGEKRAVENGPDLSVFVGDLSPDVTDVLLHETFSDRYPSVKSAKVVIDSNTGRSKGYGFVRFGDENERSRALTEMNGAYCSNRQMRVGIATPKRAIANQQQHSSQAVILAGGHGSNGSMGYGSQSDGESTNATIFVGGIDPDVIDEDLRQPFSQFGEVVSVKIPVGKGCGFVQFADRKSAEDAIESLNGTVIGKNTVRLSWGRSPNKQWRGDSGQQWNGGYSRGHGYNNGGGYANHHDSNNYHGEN
Assay: co-IP; GFP-based coprecipitation from lysate of CaMV-infected GFP-RBP47b Arabidopsis (21 dpi) with anti-GFP magnetic agarose beads, 60 min at 4 °C; buffer 100 mM Tris pH 8, 150 mM NaCl, 20 mM KCl, 2 mM MgCl2, 1% TX-100; immunoblot for P6 and P4; free GFP plants as control

Substance | binding
Cauliflower mosaic virus protein P4 | no binding
Cauliflower mosaic virus protein P6 | binds
